These results are taken from US20230340127A1, “METHODS AND COMPOSITIONS FOR CANCER TREATMENT BY INHIBITION OF FBXO44” (Sanford Burnham Prebys Medical Discovery Institute, priority 2022, published 2023).

These are yes or no findings as the source states them, for the method shown. Binding seen in cells or lysates may run through a third protein. Some results given as binding are weak or reduced against the parent protein; the word gives no strength.

This assay deals with CUL4A (endogenous), Q13619. Kind of assay: co-IP of endogenous FBXO44 in MDA-MB-231 cells, immunoblot; CRL4 components named CUL4A/CUL4B in the legend of FIG. 4A. As to conditions: remark: other sources report otherwise. A general note: A western blot detects proteins with antibodies after separation by electrophoresis.

B1: FBXO44 (endogenous F-box protein FBXO44), Q9H4M3 1-255 (protein, human, UniProt Q9H4M3 1-255, looked up)
chain: MAVGNINELPENILLELFTHVPARQLLLNCRLVCSLWRDLIDLVTLWKRKCLREGFITEDWDQPVADWKIFYFLRSLHRNLLHNPCAEEGFEFWSLDVNGGDEWKVEDLSRDQRKEFPNDQVKKYFVTSYYTCLKSQVVDLKAEGYWEELMDTTRPDIEVKDWFAARPDCGSKYQLCVQLLSSAHAPLGTFQPDPATIQQKSDAKWREVSHTFSNYPPGVRYIWFQHGGVDTHYWAGWYGPRVTNSSITIGPPLP
B1: the binding entry was “binds”.
